# The campaign covered roughly 400,000 compounds. About 13,000 (3.2%) were called active. Inconclusive means that the source gave no clear call. Such entries were picked first, then a sample of the others. Calls come from the whole dose curve; as a rule, active = well fitted cell-killing curve with a large enough effect; inconclusive = small, poorly fitted or top-dose-only effect, or effect the other way; inactive = flat fitted curve, though single readings scatter. Potencies of inconclusive entries are doubtful fits and often do not repeat.
# Assay: qHTS assay for MDR1-selective chemotherapeutics: Primary screen using the drug-selected MDR subline cells KB-V1; note: nearly all actives have a fitted effect of over 60% in size
# Conditions: KB-V1 MDR cells viability, CellTiter-Glo, 72 h; series mostly up to 46.1 µM
# Outline: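 Drug-selected KB-V1 cells, grown in DMEM lacking phenol red with 10% FBS, receive compound titrations; after three days at 37 degrees C, surviving cell ATP is quantified by CellTiter-Glo luminescence and responses normalized and curve-fitted.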
# Potency is the fitted concentration of half-maximal effect.
row,Compound,Potency
1,Cc1ccc(C)c(S(=O)(=O)c2nnn3c2nc(NCc2cccs2)c2sccc23)c1,"inconclusive: 18.4 µM [cytotoxic, single point]"
2,Cn1c(=O)[nH]c(=O)c2c1nc(NCc1ccccc1)n2CCCc1ccccc1,active: 11.6 µM
3,COc1ccc(NC(=O)Cc2csc(COc3cccc(C)c3)n2)cc1OC,"inconclusive: 25.9 µM [cytotoxic, single point]"
4,N#C/C(=C\c1ccc(O)c(O)c1)C(=O)c1ccc(O)c(O)c1,"inconclusive: 29.1 µM [cytotoxic, single point]"
5,COc1ccc(S(=O)(=O)N(C)C[C@H]2Oc3c(NC(=O)Nc4ccc(C(F)(F)F)cc4)cccc3C(=O)N([C@H](C)CO)C[C@@H]2C)cc1,"inconclusive: 29.1 µM [cytotoxic, single point]"
6,COC(=O)CN(c1ccc(OC)cc1)S(=O)(=O)c1ccc(OC)c(OC)c1,"inconclusive: 16.4 µM [cytotoxic, partial curve, poor fit]"
7,COc1ccc(C/C(C)=N/NC(=S)Nc2ccc(C)c(C)c2)cc1,"inconclusive: 18.4 µM [rising, partial curve, poor fit]"
8,C/C(CC(=O)Nc1ccc(C)c(Cl)c1)=N\NC(=O)c1cccc(O)c1,"inconclusive: 29.1 µM [rising, single point]"
9,COc1cc2cc(C)c(Br)c(OC)c2cc1OC,"inconclusive: 14.6 µM [cytotoxic, partial curve]"
10,COc1cccc(CNC(=O)CCS(=O)(=O)c2ccccc2Cl)c1,inactive
11,Cc1occc1C(=O)Nc1c(Cl)cccc1Cl,"inconclusive: 29.1 µM [rising, single point]"
12,CCC(CC)C(=O)Nc1ccc(C(=O)OCc2cc(=O)n3nc(C4CC4)sc3n2)cc1,"inconclusive: 29.1 µM [rising, single point]"
13,CC(O)(c1ccncc1)c1nc(-c2cccc(C(F)(F)F)c2)cs1 (centres undefined),"inconclusive: 14.6 µM [cytotoxic, partial curve]"
14,CN1C(=O)c2ccccc2Sc2ccc(NC(=O)Cc3c(F)cccc3Cl)cc21,"inconclusive: 7.31 µM [cytotoxic, partial curve]"
15,CC(=O)C1=C(c2ccccc2)NC(=O)NC1c1ccc(O)c(Cl)c1 (centres undefined),"inconclusive: 29.1 µM [rising, single point]"
16,CCC(=O)N/N=C(\C)CC(=O)Nc1ccc2c(c1)OCCO2,inactive
17,Cc1ccc(S(=O)(=O)CC(O)COc2ccc(F)cc2Cl)cc1 (centres undefined),"inconclusive: 29.1 µM [cytotoxic, partial curve, poor fit]"
18,C/C(N)=C(/C#N)C(=O)CSc1cc(C)c2cc(C)cc(C)c2n1,"inconclusive: 11.6 µM [cytotoxic, partial curve]"
19,CC1CCN(S(=O)(=O)CCNC(=O)c2ccccc2)CC1,active: 13 µM
20,CCO[C@@H]1OC(C(=O)N2CCN(Cc3ccc4c(c3)OCO4)CC2)=C[C@H](c2csc3ccccc23)[C@H]1CCCO,inactive
21,O=C(NCCN=C1NS(=O)(=O)c2ccccc21)c1ccc(S(=O)(=O)N2CCOCC2)cc1,"inconclusive: 18.4 µM [rising, single point]"
22,CCOCCn1c(COc2ccccc2)nc2ccccc21,"inconclusive: 5.17 µM [cytotoxic, partial curve, poor fit]"
23,Cc1onc(-c2ccccc2)c1C(=O)OCC(=O)Nc1ccc(OC(F)(F)F)cc1,inactive

row,Compound,Potency
1,Cc1ccc(NC(=O)Nc2nnc(Cc3ccc([N+](=O)[O-])cc3)s2)cc1,"inconclusive: 0.326 µM [cytotoxic, full curve, poor fit]"
2,O=C(Nc1ccccc1)Nc1scc2c1c(=O)oc1ccccc12,"inconclusive: 16.4 µM [rising, single point]"
3,O=C1/C(=C/c2ccc(Br)cc2)Oc2cc(O)ccc21,"inconclusive: 29.1 µM [cytotoxic, single point]"
4,CCN(CC)CCCNC(=O)CCCn1c(=O)[nH]c2ccc(Br)cc2c1=O,"inconclusive: 29.1 µM [rising, single point]"
5,CCC(C(=O)N1CCN(c2cc(Cl)ccc2C)CC1)n1nc(C)c2sc3ccccc3c2c1=O (centres undefined),inactive
6,O=C1c2cccc(NCCCNCCO)c2C(=O)c2cccc(NCCCNCCO)c21,"inconclusive: 7.31 µM [cytotoxic, partial curve, poor fit]"
7,OCCN=C1CCCc2c1[nH]c1ccc(Br)cc21,active: 0.326 µM
8,Cc1ccc(N(C)S(=O)(=O)c2ccc3c(c2)C(C)(C)C(=O)N3C)cc1C,"inconclusive: 20.6 µM [cytotoxic, single point]"
9,COc1ccc(-c2cc(C(=O)N(C)CC(=O)Nc3ccccc3Br)c3ccccc3n2)cc1OC,active: 9.2 µM
10,Cc1ccc(C)c(N2C(=O)c3ccc(C(=O)Nc4ccccn4)cc3C2=O)c1,"inconclusive: 9.2 µM [rising, partial curve, poor fit]"
11,O=[N+]([O-])c1ccc2c(c1)C(N1CCOCC1)/C(=C/COc1ccc(F)cc1)O2 (centres undefined),"inconclusive: 16.4 µM [cytotoxic, single point]"
12,O=C(NCc1nnc2c3ccccc3c(-c3ccccc3)nn12)c1ccc(Cl)cc1,"inconclusive: 7.31 µM [cytotoxic, partial curve]"
13,O=C(NC1CCCCC1)C1c2ccccc2C(=O)N1Cc1ccc2c(c1)OCO2 (centres undefined),"inconclusive: 5.17 µM [cytotoxic, full curve]"
14,CN(CC(=O)NCCc1ccc(S(N)(=O)=O)cc1)Cc1c(F)cccc1Cl,inactive
15,CC1(C(=O)O)CCCN(C(=O)/C=C/c2ccccc2)C1 (centres undefined),inactive
16,CN(CC/C=C1/c2ccccc2CSc2ccccc21)CCCO,active: 23.1 µM
17,O=C(CNS(=O)(=O)c1ccc(F)cc1)N1CCN(c2ccccc2)CC1,"inconclusive: 29.1 µM [cytotoxic, single point]"
18,Cc1ccccc1NC(=O)N1CCCC(c2nc(-c3ccc(F)cc3)no2)C1 (centres undefined),active: 14.6 µM
19,CC(C)(C)OC(=O)N1CCC(c2c(C(=O)NCC3CCN(C4CCCC4)C3)cnn2-c2ccccc2)CC1 (centres undefined),"inconclusive: 29.1 µM [rising, single point]"
20,Cc1cccc(C)c1NC(=O)C1c2ccccc2OCC(=O)N1Cc1cccnc1 (centres undefined),"inconclusive: 25.9 µM [rising, single point]"
21,COc1ccccc1/C=C/C(=O)OCC(=O)c1c[nH]c2ccccc12,"inconclusive: 18.4 µM [cytotoxic, single point]"
22,CCCCn1nc(C(=O)NCC2COc3ccccc3O2)c2ccccc2c1=O (centres undefined),"inconclusive: 29.1 µM [cytotoxic, single point]"
23,CCOC(=O)C1CCC(=O)C1 (centres undefined),"inconclusive: 2.06 µM [rising, partial curve, poor fit]"

row,Compound,Potency
1,COc1ccccc1[C@@H]1C(c2cccc(C)c2)=NN(c2ccccc2)[C@H]1C(=O)N1CCOC1=O,inactive
2,C=Cn1cc[n+](CC(=O)c2ccc(OC)cc2)c1,"inconclusive: 25.9 µM [rising, single point]"
3,CCOC(=O)c1ccc(NC(=O)Nc2ccc3snnc3c2)cc1,inactive
4,COc1ccc(C(=O)NCCc2nc3cc([N+](=O)[O-])ccc3n2C)cc1,"inconclusive: 2.31 µM [cytotoxic, full curve]"
5,CC(C)(C)C1CCc2onc(C(=O)Nc3ccc4c(c3)OCO4)c2C1 (centres undefined),inactive
6,COc1cccc(C(=O)Nc2cccc3c2ccc2cccn23)c1,inactive
7,CC[C@]12c3[nH]c4ccccc4c3CCN1C(=O)C(CC(=O)NC/C=C(\C)CCC=C(C)C)C[C@@H]2C(=O)N1CCN(C(=O)C2CC2)CC1 (some centres undefined),inactive
8,CNc1ccc(Br)cc(C(=O)/C=C/c2ccc(OC)cc2)c1=O,"inconclusive: 23.1 µM [cytotoxic, single point]"
9,CN1CCN(CCCCC(=O)c2ccccc2)CC1,inactive
10,CCOc1ccc(-c2cc(C(=O)N/N=C/c3cccnc3)c3ccccc3n2)cc1,"inconclusive: 9.2 µM [cytotoxic, partial curve]"
11,Cc1ccc(CNC(=O)NC2COc3ccccc3C2)cc1 (centres undefined),inactive
12,CCN1C(=O)NC2=C(C(=O)c3ccccc32)C1c1ccccc1F (centres undefined),inactive
13,CC(C)(C)c1ccc(C(=O)NC(=S)Nc2sc3c(c2C#N)CCC3)cc1,"inconclusive: 32.6 µM [cytotoxic, partial curve, poor fit]"
14,O=S1(=O)N=C(N2CCN(Cc3ccccc3)CC2)c2ccccc21,inactive
15,CC(C)NC1CCC(Nc2ccnc3cc(Cl)ccc23)CC1 (centres undefined),inactive
16,Cc1cc(C)c(NC(=O)Cn2c(=O)n(CCc3ccccc3)c(=O)c3ccccc32)c(C)c1,inactive
17,CCCC1(C(=O)OCC)NC(c2cc(OC)c(OC)c(OC)c2)C2C(=O)N(CC)C(=O)C21 (centres undefined),"inconclusive: 9.2 µM [cytotoxic, partial curve, poor fit]"
18,O=[N+]([O-])c1ccc(C=NN2CCNC2=S)o1,"inconclusive: 16.4 µM [cytotoxic, single point]"
19,NC(=O)CS(=O)(=O)c1nc2ccccc2n1Cc1ccccc1F,"inconclusive: 29.1 µM [cytotoxic, single point]"
20,O=C(/C=C/c1ccccc1)CCN1CCOCC1,"inconclusive: 20.6 µM [cytotoxic, single point]"
21,COc1ccc(C)cc1NC(=O)CCc1ccc(S(=O)(=O)N2CCOCC2)cc1,inactive
22,CC1CCCN(C(=O)c2cccc(S(=O)(=O)Nc3cc(C(F)(F)F)ccc3Cl)c2)C1 (centres undefined),active: 18.4 µM
23,N=c1ccn2c(n1)O[C@H]1[C@@H](CO)[C@H](O)O[C@H]12,"inconclusive: 5.8 µM [cytotoxic, partial curve, poor fit]"

# Two successive compounds already listed, for reference:
row,Compound,Potency
18,O=[N+]([O-])c1ccc(C=NN2CCNC2=S)o1,"inconclusive: 16.4 µM [cytotoxic, single point]"
19,NC(=O)CS(=O)(=O)c1nc2ccccc2n1Cc1ccccc1F,"inconclusive: 29.1 µM [cytotoxic, single point]"

# Source: PubChem BioAssay AID1347076 (National Center for Advancing Translational Sciences (NCATS), 2019)
